# Publication PMC12320502
# By UniProt entry, the sequences of proteins in these tests, tags left out. Residues count along the entry.
# UniProt P11021, residues 19-654: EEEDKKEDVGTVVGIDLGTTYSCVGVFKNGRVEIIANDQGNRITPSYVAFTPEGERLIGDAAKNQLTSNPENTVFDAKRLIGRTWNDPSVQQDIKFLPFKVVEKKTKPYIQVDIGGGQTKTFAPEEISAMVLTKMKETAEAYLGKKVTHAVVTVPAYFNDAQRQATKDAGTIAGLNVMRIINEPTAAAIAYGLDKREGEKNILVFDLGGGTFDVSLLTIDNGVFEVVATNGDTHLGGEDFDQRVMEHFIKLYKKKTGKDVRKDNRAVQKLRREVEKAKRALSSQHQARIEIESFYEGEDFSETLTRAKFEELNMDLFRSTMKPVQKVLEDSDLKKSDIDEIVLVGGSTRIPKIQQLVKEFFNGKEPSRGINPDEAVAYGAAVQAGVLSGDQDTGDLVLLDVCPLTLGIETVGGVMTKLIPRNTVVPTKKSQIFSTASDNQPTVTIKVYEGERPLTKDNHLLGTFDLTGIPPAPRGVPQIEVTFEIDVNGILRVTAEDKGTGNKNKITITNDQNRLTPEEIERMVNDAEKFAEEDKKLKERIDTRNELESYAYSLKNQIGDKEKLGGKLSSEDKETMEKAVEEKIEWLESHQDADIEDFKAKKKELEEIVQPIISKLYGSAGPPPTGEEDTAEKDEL
# No constants are given. Whether binding was seen depends on the method and setting. Binding seen in cells or lysates may run through a third protein. Some results given as binding are weak or reduced against the parent protein; the word gives no strength. Tags and fused reporters may be left off the sequences shown.
# T1: SBSPON tagged with 3×Flag (pcDNA3.1-3×Flag-SBSPON) (human) (UniProt Q8IVN8)
# T1 sequence (chain, N-glycosylation at Asn227): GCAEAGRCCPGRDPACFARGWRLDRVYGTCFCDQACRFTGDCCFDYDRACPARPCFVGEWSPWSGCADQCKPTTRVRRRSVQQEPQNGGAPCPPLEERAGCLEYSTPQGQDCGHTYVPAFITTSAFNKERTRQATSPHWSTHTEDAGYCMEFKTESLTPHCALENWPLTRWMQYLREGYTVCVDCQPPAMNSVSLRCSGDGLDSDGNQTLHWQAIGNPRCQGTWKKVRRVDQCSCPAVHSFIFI
# T2: SBSPON-3×Flag (Somatomedin B and Thrombospondin Type 1 Domain Containing), stably overexpressed by lentivirus (human) (UniProt Q8IVN8)
# T2 sequence (chain, N-glycosylation at Asn227): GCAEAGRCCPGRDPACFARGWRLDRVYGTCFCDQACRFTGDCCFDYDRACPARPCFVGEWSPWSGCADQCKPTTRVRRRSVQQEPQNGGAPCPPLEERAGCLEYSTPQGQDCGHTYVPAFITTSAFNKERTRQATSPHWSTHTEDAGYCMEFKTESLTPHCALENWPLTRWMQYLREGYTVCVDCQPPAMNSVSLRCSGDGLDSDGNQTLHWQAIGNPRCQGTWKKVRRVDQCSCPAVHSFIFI
# Legend:
# [1] = target: T1, SBSPON tagged with 3×Flag (pcDNA3.1-3×Flag-SBSPON) (human); assay: co-IP; cell lysates immunoprecipitated with anti-Flag (SBSPON) or anti-Myc (HSPA5) antibodies, then immunoblotting; NP-40 lysates, protein A/G agarose beads
# [2] = target: T2, SBSPON-3×Flag (Somatomedin B and Thrombospondin Type 1 Domain Containing), stably overexpressed by lentivirus (human); assay: co-IP; bladder cancer cells untreated or exposed to DDP or TM (ER stress); the interaction is enhanced under stress; the method is not named for this panel
# [3] = target: HSPA5 tagged with Myc (pcDNA3.1) (UniProt P11021); assay: co-IP; cell lysates immunoprecipitated with anti-Flag (SBSPON) or anti-Myc (HSPA5) antibodies, then immunoblotting; NP-40 lysates, protein A/G agarose beads
molecule,measurement,setting,value
HSPA5 tagged with Myc (pcDNA3.1) (from UniProt P11021 19-654),binding,[1],binds
"HSPA5, endogenous in bladder cancer cells (from UniProt P11021 19-654)",binding,[2],binds
"SBSPON tagged with 3×Flag (pcDNA3.1-3×Flag-SBSPON) (protein, UniProt Q8IVN8 21-264, N-glycosylation at Asn227) GCAEAGRCCPGRDPACFARGWRLDRVYGTCFCDQACRFTGDCCFDYDRACPARPCFVGEWSPWSGCADQCKPTTRVRRRSVQQEPQNGGAPCPPLEERAGCLEYSTPQGQDCGHTYVPAFITTSAFNKERTRQATSPHWSTHTEDAGYCMEFKTESLTPHCALENWPLTRWMQYLREGYTVCVDCQPPAMNSVSLRCSGDGLDSDGNQTLHWQAIGNPRCQGTWKKVRRVDQCSCPAVHSFIFI",binding,[3],binds
